Reference: the supplement of paper PMC8256030
“And” between values parts separate entries of the source, which are not always exact repeats. Equal values may be shown once. Where a name gives a salt, the structure may show the parent alone. The list shows a part of the results. Repeats in this data set agree poorly, so a single value says little.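 HEK293T cells were given each compound shortly before transfection with a reporter in which red mCherry is followed by the SARS-CoV-2 frameshift element and then GFP in the −1 frame, so GFP appears only after frameshifting.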

Tested on: HEK293T
Test: percent viability (nuclei count) relative to control; higher = more viable cells
Details: 10 µM; 24 h

Structure (SMILES) | percent viability
CN/C(=N\CCSCc1nc[nH]c1C)NC#N | 166%
C[C@H]1O[C@@H](O[C@H]2[C@@H](O)C[C@H](O[C@H]3[C@@H](O)C[C@H](O[C@H]4CC[C@@]5(C)[C@H](CC[C@@H]6[C@@H]5C[C@@H](O)[C@]5(C)[C@@H](C7=CC(=O)OC7)CC[C@]65O)C4)O[C@@H]3C)O[C@@H]2C)C[C@H](O)[C@@H]1O | 2.64%
COc1ccccc1N1CCN(CC(O)COc2cc(OC)c(OC)c(OC)c2)CC1 (configuration not stated) [enciprazine] | 79.4%
Nc1ncnc2nc[nH]c12 | 113%
CCOc1ccc(S(=O)(=O)O)c2cccnc12 [actinoquinol] | 116%
C(=C\c1ccccc1)/CN1CCN(C(c2ccccc2)c2ccccc2)CC1 [Stugeron] | 140%
CCN(CC)CC#CCOC(=O)C(O)(c1ccccc1)C1CCCCC1 (configuration not stated) | 369%
CCS(=O)(=O)c1cc2cc(C[C@](O)(CC(C)(C)c3ccc(F)cc3C(N)=O)C(F)(F)F)[nH]c2cn1 | 54.3%
C[C@]12CCC3=C4CCC(=O)C=C4CC[C@H]3[C@@H]1CC[C@@]2(O)CC#N [dienogest] | 160%
NC(=O)c1cc[n+](CC2=C(C(=O)O)N3C(=O)[C@@H](NC(=O)[C@@H](c4ccccc4)S(=O)(=O)[O-])[C@H]3SC2)cc1 | 298%
CC1=C(C(=O)O)N2C(=O)[C@@H](NC(=O)[C@H](N)c3ccc(O)cc3)[C@H]2SC1 | 251%
CNC(=O)COc1cc2cc(Nc3nc(N4CCC(C(=O)N(C)C)CC4)ncc3Cl)cc(OC)c2n(C)c1=O | 62.3%
Cc1nccn1CC1CCc2c(c3ccccc3n2C)C1=O (configuration not stated) [ondansetron] | 238%
CC(C)c1c(C(=O)Nc2ccccc2)c(-c2ccccc2)c(-c2ccc(F)cc2)n1CC[C@@H](O)C[C@@H](O)CC(=O)O [atorvastatin] | 133% and 253%
Cc1cc(NS(=O)(=O)c2ccc(N)cc2)no1 [Sulfamethoxazole] | 26.7%
CCN(CC)CCCN1c2ccccc2Sc2ccc(Cl)cc21 [chlorproethazine] | 312%
Oc1ccc(OCc2ccccc2)cc1 [monobenzone] | 65.6%
CCC[S+]([O-])c1ccc2[nH]c(NC(=O)OC)nc2c1 (configuration not stated) [Ricobendazole] | 135%
Cc1nnc(SCC2=C(C(=O)O)N3C(=O)[C@@H](NC(=O)Cn4cnnn4)[C@H]3SC2)s1 [cefazolin] | 159%
Nc1ccc(C(=O)NCC(=O)O)cc1 | 384%
CC(C)Nc1cccnc1N1CCN(C(=O)c2cc3cc(NS(C)(=O)=O)ccc3[nH]2)CC1 [Delavirdine mesylate] | 222%
C[C@H]1O[C@H](O[C@H]2[C@H](O)[C@@H](O)[C@@H](O[C@@H]([C@H](O)[C@@H](O)C=O)[C@H](O)CO)O[C@@H]2CO)[C@H](O)[C@@H](O)[C@@H]1N[C@H]1C=C(CO)[C@@H](O)[C@H](O)[C@H]1O [acarbose] | 348% and 203%
Nc1ncnc2c1ncn2[C@@H]1O[C@H](COP(=O)(O)O)[C@@H](O)[C@H]1O [adenosine phosphate] | 198% and 178% and 195%
CCOc1cc(-c2nccc3cc(OC)c(OC)cc23)cc(OCC)c1OCC [octaverine] | 64.8%
CC1(C)S[C@@H]2[C@H](NC(=O)[C@H](N)c3ccc(O)cc3)C(=O)N2[C@H]1C(=O)O [Amoxicillin] | 209%
C[n+]1cc2c3c(ccc2c2ccc4cc5c(cc4c21)OCO5)OCO3 | 29.8%

Structure (SMILES) | percent viability
COc1c(N2C[C@@H]3CCCN[C@@H]3C2)c(F)cc2c(=O)c(C(=O)O)cn(C3CC3)c12 | 292%
CCOc1ccc2nc3cc(N)ccc3c(N)c2c1 | 123%
CCOC1O[C@H]([C@@H](COCc2ccccc2)OCc2ccccc2)[C@H](OCc2ccccc2)[C@H]1O (some centres not stated) | 213%
CC(=O)OCC(=O)[C@H]1CC[C@H]2[C@@H]3CCC4=CC(=O)CC[C@]4(C)[C@H]3CC[C@]12C | 246%
S=C=Nc1ccc(N=C=S)cc1 [bitoscanate] | 254%
CCC(=O)OCC(=O)[C@@]1(OC(=O)CC)[C@@H](C)C[C@H]2[C@@H]3CCC4=CC(=O)C=C[C@]4(C)[C@@]3(F)[C@@H](O)C[C@@]21C | 185%
CCCC1C(=O)N2C(N(C)C)=Nc3ccc(C)cc3N2C1=O (configuration not stated) [azapropazone] | 397%
COc1ccc2c(c1)C(O)(CCCN(C)C)c1ccccc1S2 (configuration not stated) [meprotixol] | 207%
O=c1[nH]c2ccccc2n1C1CCN(CCOc2ccccc2)CC1 [oxiperomide] | 148%
CC1CC(=O)NN=C1c1cc(-n2ccnc2)cs1 (configuration not stated) [motapizone] | 118%
CCCCCCc1ccc(O)cc1O.Nc1c2ccccc2nc2ccccc12 [acrisorcin] | 24.8%
CCC(=O)OCC(=O)[C@@]1(OC(=O)CC)[C@H](C)C[C@H]2[C@H]3[C@H]([C@@H](O)C[C@@]21C)[C@@]1(C)C=CC(=O)C=C1C[C@H]3Cl [Alclometasone] | 318%
CCCCCCCCCCCCCCCC[N+](C)(C)CCN(Cc1ccc(OC)cc1)c1ncccn1 [tonzonium bromide] | 323%
CCOC(=O)COc1ccc2c(C)c(CCN(CC)CC)c(=O)oc2c1 [Carbocromen] | 138%
c1ccc2c(c1)CCCC2C1=NCCN1 (configuration not stated) [tetryzoline] | 184%
CNCC(O)c1ccc(OC(=O)C(C)(C)C)c(OC(=O)C(C)(C)C)c1 (configuration not stated) [dipivefrine] | 364%
C[C@H](Cn1cnc2c(N)ncnc21)OCP(=O)(O)O [tenofovir] | 151%
N=C(N)NC(=O)c1nc(Cl)c(N)nc1N [amiloride] | 177%
CC1=C(/C=C/C(C)=C/C=C/C(C)=C/CO)C(C)(C)CCC1 [retinol] | 168%
CC1=C(C/C=C(\C)CCC[C@H](C)CCC[C@H](C)CCCC(C)C)C(=O)c2ccccc2C1=O [phytomenadione] | 86.5%
COc1cc(N)c(Cl)cc1C(=O)N1CCN(Cc2ccc3c(c2)OCO3)CC1 [peralopride] | 219%
CC(C)(C)NC[C@H](O)COc1ccccc1C1CCCC1 [penbutolol] | 368%
CCCCOCCOCCOCc1cc2c(cc1CCC)OCO2 | 340%
CC(C)NCC(O)COc1ccccc1-n1cccc1 (configuration not stated) [isamoltan] | 102%
CC[N+]([O-])(CC)CCOc1ccc(/C(=C(/Cl)c2ccccc2)c2ccccc2)cc1 [clomifenoxide] | 87.8%
CC(=O)Nc1ccc(S(=O)(=O)Nc2ccc([N+](=O)[O-])cc2)cc1 [sulfanitran] | 171%

Fetched one by one from the list above:
Structure (SMILES) | percent viability
CCOC1O[C@H]([C@@H](COCc2ccccc2)OCc2ccccc2)[C@H](OCc2ccccc2)[C@H]1O (some centres not stated) | 213%
O=c1[nH]c2ccccc2n1C1CCN(CCOc2ccccc2)CC1 [oxiperomide] | 148%
CC1=C(/C=C/C(C)=C/C=C/C(C)=C/CO)C(C)(C)CCC1 [retinol] | 168%
CNCC(O)c1ccc(OC(=O)C(C)(C)C)c(OC(=O)C(C)(C)C)c1 (configuration not stated) [dipivefrine] | 364%

Further results:

Structure (SMILES) | percent viability
O=C(N[C@H]1CCS[C@H]2CCC[C@@H](C(=O)O)N2C1=O)[C@@H](S)Cc1ccccc1 [omapatrilat] | 68.7%
COc1c(C)c2c(c(O)c1C/C=C(\C)CCC(=O)O)C(=O)OC2 [mycophenolic acid] | 245% and 109%
Cc1ccsc1/C=C/C1=NCCCN1C | 304%
CN1CCCN=C1COC(=O)C(O)(c1ccccc1)C1CCCCC1 (configuration not stated) | 347%
CN[C@H](CC(C)C)C(=O)N[C@H]1C(=O)N[C@@H](CC(N)=O)C(=O)N[C@H]2C(=O)N[C@H]3C(=O)N[C@H](C(=O)N[C@H](C(=O)O)c4cc(O)cc(O)c4-c4cc3ccc4O)[C@H](O)c3ccc(c(Cl)c3)Oc3cc2cc(c3O[C@@H]2O[C@H](CO)[C@@H](O)[C@H](O)[C@H]2O[C@H]2C[C@](C)(N)[C@H](O)[C@H](C)O2)Oc2ccc(cc2Cl)[C@H]1O [Vancocin] | 247%
O=c1ccc2ccccc2o1 | 413%
C=C[C@@]1(C)CC(=O)[C@]2(O)[C@@]3(C)[C@@H](O)CCC(C)(C)[C@@H]3[C@H](O)[C@H](OC(C)=O)[C@@]2(C)O1 [colforsin] | 128%
CC(=O)N[C@@H](CC(=O)N[C@@H](CCC(=O)O)C(=O)O)C(=O)O [Spaglumic Acid] | 54.5%
CC(C)(Oc1ccc(Cl)cc1)C(=O)O [clofibric acid] | 215%
CCC(Cc1c(I)cc(I)c(N)c1I)C(=O)O (configuration not stated) [iopanoic acid] | 331%
COc1cc(NS(C)(=O)=O)ccc1Nc1c2ccccc2nc2ccccc12 | 162%
Cc1cc2cc3c(C)cc(=O)oc3c(C)c2o1 [trioxysalen] | 135%
C[C@@H]1CN(c2c(F)c(N)c3c(=O)c(C(=O)O)cn(C4CC4)c3c2F)C[C@H](C)N1 [sparfloxacin] | 174% and 153%
CCCCC(CC)COC(=O)CC(C(=O)OCC(CC)CCCC)S(=O)(=O)O (configuration not stated) [docusate sodium] | 3.4%
CC/N=C(\NCC)NCCCC[C@H](NC(=O)[C@H](CC(C)C)NC(=O)[C@@H](CCCCN/C(=N/CC)NCC)NC(=O)[C@H](Cc1ccc(O)cc1)NC(=O)[C@H](CO)NC(=O)[C@@H](Cc1cccnc1)NC(=O)[C@@H](Cc1ccc(Cl)cc1)NC(=O)[C@@H](Cc1ccc2ccccc2c1)NC(C)=O)C(=O)N1CCC[C@H]1C(=O)N[C@H](C)C(N)=O [Ganirelix] | 18.4%
COC[C@@H](c1ccc(C(F)(F)F)cc1)N1CCN(C2(C)CCN(C(=O)c3c(C)ncnc3C)CC2)C[C@@H]1C [vicriviroc] | 278%
CC(C(=O)O)c1ccc(CC2CCCC2=O)cc1 (configuration not stated) | 323%
CC(C)NC[C@@H](O)COc1cccc2ccccc12 | 183%
O=C1CN2Cc3c(ccc(Cl)c3Cl)N=C2N1 [anagrelide] | 67.4%
Cc1ccc2c(Br)cc(Br)c(O)c2n1 [broquinaldol] | 85.5%
NCCc1cc[nH]n1 [betazole] | 232%
CCN(CC)CCNc1ccc(CO)c2sc3ccccc3c(=O)c12 [hycanthone] | 236%
O=C1CCC(c2ccc(-n3ccnc3)cc2)=NN1 [imazodan] | 94.6%
COc1ccc(-c2nc(C(F)(F)F)[nH]c2-c2ccc(OC)cc2)cc1 [flumizole] | 154%
CN[C@H](CC(C)C)C(=O)N[C@H]1C(=O)N[C@@H](CC(N)=O)C(=O)N[C@H]2C(=O)N[C@H]3C(=O)N[C@H](C(=O)N[C@H](C(=O)O)c4cc(O)cc(O)c4-c4cc3ccc4O)[C@H](O)c3ccc(c(Cl)c3)Oc3cc2cc(c3O[C@@H]2O[C@H](CO)[C@@H](O)[C@H](O)[C@H]2O[C@H]2C[C@](C)(N)[C@H](O)[C@H](C)O2)Oc2ccc(cc2Cl)[C@H]1O | 148%
